Test results published in PMC5572707.
These are yes or no findings as the source states them, for the method shown. In cells and extracts the contact can be indirect. Some binding calls cover weakened binding; strength is not graded here.

By UniProt entry, the sequences of proteins in these tests, tags left out. Residues count along the entry.
UniProt P08581, residues 25-1390: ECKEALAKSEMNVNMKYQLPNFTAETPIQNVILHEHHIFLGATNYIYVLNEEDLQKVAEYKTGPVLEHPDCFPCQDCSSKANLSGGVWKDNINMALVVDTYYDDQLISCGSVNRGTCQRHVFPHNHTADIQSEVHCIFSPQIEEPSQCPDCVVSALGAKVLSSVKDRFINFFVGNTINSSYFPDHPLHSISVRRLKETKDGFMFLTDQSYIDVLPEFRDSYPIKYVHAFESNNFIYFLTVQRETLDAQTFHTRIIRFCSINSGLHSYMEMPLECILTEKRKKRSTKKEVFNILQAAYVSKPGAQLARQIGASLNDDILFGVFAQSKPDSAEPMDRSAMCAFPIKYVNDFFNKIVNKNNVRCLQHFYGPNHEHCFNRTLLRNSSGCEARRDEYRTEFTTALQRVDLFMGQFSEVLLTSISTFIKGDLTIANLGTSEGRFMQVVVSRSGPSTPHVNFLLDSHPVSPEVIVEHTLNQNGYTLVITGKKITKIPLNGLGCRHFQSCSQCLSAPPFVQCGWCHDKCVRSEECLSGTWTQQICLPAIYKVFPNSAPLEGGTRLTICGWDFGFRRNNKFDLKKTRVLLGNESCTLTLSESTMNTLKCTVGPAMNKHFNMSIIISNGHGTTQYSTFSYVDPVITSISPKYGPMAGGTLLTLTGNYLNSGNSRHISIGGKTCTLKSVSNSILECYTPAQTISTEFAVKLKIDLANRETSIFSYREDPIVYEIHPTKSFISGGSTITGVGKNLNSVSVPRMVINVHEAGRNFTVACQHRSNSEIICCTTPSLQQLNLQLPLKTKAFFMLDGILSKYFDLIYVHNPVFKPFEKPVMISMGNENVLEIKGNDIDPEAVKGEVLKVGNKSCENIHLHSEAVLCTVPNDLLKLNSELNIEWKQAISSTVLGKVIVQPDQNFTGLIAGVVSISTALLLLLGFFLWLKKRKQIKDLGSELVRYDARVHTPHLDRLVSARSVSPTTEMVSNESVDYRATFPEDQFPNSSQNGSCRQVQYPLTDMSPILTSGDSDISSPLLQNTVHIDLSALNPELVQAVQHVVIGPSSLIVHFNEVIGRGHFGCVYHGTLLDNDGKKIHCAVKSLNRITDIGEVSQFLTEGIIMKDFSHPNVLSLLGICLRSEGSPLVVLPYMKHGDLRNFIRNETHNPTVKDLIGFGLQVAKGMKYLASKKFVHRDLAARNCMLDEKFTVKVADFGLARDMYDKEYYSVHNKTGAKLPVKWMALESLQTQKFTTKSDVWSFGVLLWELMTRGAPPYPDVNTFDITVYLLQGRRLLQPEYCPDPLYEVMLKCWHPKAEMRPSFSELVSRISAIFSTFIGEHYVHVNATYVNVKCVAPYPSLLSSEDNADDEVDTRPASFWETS
UniProt P62330: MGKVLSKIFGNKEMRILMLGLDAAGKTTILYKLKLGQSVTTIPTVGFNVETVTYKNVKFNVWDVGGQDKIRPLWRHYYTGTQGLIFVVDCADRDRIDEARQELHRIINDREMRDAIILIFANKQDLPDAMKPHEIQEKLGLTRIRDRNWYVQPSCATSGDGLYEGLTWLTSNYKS
UniProt O14986: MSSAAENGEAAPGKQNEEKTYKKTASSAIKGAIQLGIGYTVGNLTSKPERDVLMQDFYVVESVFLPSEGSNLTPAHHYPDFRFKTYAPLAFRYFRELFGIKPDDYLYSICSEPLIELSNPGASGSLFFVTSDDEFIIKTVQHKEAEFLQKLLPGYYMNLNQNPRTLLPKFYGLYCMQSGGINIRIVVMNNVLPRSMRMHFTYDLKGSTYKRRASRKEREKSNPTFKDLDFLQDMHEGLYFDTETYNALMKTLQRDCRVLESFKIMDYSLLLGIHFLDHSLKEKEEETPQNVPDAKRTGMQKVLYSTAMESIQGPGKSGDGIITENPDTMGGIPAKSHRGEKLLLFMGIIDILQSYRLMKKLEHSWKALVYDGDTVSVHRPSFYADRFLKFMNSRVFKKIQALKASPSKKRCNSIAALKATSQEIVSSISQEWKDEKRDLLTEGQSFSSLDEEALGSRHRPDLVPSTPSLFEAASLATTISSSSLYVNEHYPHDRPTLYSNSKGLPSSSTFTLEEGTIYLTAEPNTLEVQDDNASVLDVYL
UniProt Q99755: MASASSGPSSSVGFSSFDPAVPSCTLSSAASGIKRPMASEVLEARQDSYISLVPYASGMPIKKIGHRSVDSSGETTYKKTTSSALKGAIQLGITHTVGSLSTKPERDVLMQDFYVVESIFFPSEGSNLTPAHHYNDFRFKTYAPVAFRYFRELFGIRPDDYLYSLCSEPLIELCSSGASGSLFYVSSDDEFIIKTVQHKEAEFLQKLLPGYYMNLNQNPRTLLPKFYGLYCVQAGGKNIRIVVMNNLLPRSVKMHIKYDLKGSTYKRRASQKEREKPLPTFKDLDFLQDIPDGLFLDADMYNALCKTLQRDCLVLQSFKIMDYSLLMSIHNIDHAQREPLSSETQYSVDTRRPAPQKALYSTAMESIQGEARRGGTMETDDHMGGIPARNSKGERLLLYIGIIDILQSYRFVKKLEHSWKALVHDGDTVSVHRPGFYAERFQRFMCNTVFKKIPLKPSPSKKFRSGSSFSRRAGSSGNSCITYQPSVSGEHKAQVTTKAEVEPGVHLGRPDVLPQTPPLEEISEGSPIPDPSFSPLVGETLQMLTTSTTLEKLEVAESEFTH
UniProt O60331: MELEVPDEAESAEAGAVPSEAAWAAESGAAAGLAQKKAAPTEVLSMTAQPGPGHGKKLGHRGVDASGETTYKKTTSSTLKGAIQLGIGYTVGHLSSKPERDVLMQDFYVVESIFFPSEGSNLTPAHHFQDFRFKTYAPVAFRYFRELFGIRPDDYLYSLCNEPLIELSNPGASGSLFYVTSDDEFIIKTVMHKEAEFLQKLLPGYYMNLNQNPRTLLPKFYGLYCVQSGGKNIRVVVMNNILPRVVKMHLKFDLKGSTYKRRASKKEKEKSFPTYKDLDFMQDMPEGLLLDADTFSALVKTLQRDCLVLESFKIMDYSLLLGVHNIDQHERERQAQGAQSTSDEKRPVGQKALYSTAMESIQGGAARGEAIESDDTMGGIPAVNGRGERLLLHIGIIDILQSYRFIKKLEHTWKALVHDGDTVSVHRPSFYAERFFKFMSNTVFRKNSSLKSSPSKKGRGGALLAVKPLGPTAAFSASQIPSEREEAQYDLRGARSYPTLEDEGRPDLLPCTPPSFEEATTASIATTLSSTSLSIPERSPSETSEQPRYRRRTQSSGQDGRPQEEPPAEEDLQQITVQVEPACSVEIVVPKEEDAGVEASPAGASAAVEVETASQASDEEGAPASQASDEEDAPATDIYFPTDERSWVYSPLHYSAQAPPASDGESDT

Assays:
[1] = biological target: HGF receptor c-Met (human (endogenous in HepG2)) (UniProt P08581); assay: co-IP; endogenous c-Met immunoprecipitated with anti-c-Met antibody from lysates of HepG2 cells transfected with control siRNA or Arf6 siRNA and stimulated with 10 ng/mL HGF for the indicated time; lysis buffer 25 mM Tris-HCl pH 7.5, 1% Triton X-100, 10 mM NaCl, 1 mM EGTA, 5 mM MgCl2; 4 °C, 4 h; Western blot with anti-Arf6 and anti-PIP5K1A
[2] = biological target: ADP-ribosylation factor 6 (Arf6) (human (endogenous in HepG2)) (UniProt P62330); assay: co-IP; endogenous Arf6 immunoprecipitated from lysates of HepG2 cells stimulated with 10 ng/mL HGF for the indicated time; lysis buffer 25 mM Tris-HCl pH 7.5, 1% Triton X-100, 10 mM NaCl, 1 mM EGTA, 5 mM MgCl2; 4 °C, 4 h; Western blot with antibodies specific to each PIP5K1 isoform

Substance | binding [1] | binding [2]
ADP-ribosylation factor 6 (Arf6) (from UniProt P62330 1-175) | binds | –
type I phosphatidylinositol 4-phosphate 5-kinase PIP5K1B (from UniProt O14986 1-540) (enzyme) | – | no binding
type I phosphatidylinositol 4-phosphate 5-kinase PIP5K1A (from UniProt Q99755 1-562) (enzyme) | – | binds
type I phosphatidylinositol 4-phosphate 5-kinase PIP5K1C (from UniProt O60331 1-668) (enzyme) | – | no binding
